One molecule from publication PMC11615746 can be followed below.

Chains of the proteins cited; added tags and fusions are not shown.
UniProt P18850: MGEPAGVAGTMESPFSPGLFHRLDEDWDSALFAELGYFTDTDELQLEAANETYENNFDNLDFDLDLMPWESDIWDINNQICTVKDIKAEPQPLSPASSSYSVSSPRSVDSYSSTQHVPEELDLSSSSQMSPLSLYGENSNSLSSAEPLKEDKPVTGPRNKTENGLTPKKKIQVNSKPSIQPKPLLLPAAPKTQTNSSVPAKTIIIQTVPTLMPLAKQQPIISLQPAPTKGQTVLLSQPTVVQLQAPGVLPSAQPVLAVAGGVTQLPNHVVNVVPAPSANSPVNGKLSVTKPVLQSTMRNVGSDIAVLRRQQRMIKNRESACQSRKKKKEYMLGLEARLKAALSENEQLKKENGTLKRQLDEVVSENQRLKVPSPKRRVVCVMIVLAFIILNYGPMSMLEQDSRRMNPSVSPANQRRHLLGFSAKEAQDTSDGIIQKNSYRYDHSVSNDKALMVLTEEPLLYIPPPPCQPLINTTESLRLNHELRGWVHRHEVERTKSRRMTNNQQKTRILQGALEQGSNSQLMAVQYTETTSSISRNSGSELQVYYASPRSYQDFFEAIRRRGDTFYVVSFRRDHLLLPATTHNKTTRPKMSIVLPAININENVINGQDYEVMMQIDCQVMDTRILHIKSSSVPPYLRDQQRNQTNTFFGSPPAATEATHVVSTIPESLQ

The target of this experiment is activating transcription factor 6 (ATF6), endogenous (human (endogenous in T24, 5637 and 253J)) (UniProt P18850). In words: co-IP; endogenous proteins; anti-ATF6 IP from 253J cells (TPD52 overexpression or empty vector) and T24 cells (shTPD52 or scramble), with 1 µg/mL tunicamycin where indicated; immunoblot. For orientation: In western blotting, separated proteins are transferred to a membrane and probed.

No constants are given. Whether binding was seen depends on the method and setting. Binding seen in cells or lysates may run through a third protein. Some results given as binding are weak or reduced against the parent protein; the word gives no strength.

B1: site-2 protease (S2P), endogenous (enzyme, UniProt O43462 1-519)
chain: MIPVSLVVVVVGGWTVVYLTDLVLKSSVYFKHSYEDWLENNGLSISPFHIRWQTAVFNRAFYSWGRRKARMLYQWFNFGMVFGVIAMFSSFFLLGKTLMQTLAQMMADSPSSYSSSSSSSSSSSSSSSSSSSSSSSLHNEQVLQVVVPGINLPVNQLTYFFTAVLISGVVHEIGHGIAAIREQVRFNGFGIFLFIIYPGAFVDLFTTHLQLISPVQQLRIFCAGIWHNFVLALLGILALVLLPVILLPFYYTGVGVLITEVAEDSPAIGPRGLFVGDLVTHLQDCPVTNVQDWNECLDTIAYEPQIGYCISASTLQQLSFPVRAYKRLDGSTECCNNHSLTDVCFSYRNNFNKRLHTCLPARKAVEATQVCRTNKDCKKSSSSSFCIIPSLETHTRLIKVKHPPQIDMLYVGHPLHLHYTVSITSFIPRFNFLSIDLPVVVETFVKYLISLSGALAIVNAVPCFALDGQWILNSFLDATLTSVIGDNDVKDLIGFFILLGGSVLLAANVTLGLWMVTAR
On to B1, for which the binding result is “binds”.
